According to article PMC5437280:
No constants are given. Whether binding was seen depends on the method and setting. For part of these data: Binding seen in cells or lysates may run through a third protein. Some results given as binding are weak or reduced against the parent protein; the word gives no strength. Tags and fused reporters may be left off the sequences shown.

By UniProt entry, the sequences of proteins in these tests, tags left out.
UniProt P14713: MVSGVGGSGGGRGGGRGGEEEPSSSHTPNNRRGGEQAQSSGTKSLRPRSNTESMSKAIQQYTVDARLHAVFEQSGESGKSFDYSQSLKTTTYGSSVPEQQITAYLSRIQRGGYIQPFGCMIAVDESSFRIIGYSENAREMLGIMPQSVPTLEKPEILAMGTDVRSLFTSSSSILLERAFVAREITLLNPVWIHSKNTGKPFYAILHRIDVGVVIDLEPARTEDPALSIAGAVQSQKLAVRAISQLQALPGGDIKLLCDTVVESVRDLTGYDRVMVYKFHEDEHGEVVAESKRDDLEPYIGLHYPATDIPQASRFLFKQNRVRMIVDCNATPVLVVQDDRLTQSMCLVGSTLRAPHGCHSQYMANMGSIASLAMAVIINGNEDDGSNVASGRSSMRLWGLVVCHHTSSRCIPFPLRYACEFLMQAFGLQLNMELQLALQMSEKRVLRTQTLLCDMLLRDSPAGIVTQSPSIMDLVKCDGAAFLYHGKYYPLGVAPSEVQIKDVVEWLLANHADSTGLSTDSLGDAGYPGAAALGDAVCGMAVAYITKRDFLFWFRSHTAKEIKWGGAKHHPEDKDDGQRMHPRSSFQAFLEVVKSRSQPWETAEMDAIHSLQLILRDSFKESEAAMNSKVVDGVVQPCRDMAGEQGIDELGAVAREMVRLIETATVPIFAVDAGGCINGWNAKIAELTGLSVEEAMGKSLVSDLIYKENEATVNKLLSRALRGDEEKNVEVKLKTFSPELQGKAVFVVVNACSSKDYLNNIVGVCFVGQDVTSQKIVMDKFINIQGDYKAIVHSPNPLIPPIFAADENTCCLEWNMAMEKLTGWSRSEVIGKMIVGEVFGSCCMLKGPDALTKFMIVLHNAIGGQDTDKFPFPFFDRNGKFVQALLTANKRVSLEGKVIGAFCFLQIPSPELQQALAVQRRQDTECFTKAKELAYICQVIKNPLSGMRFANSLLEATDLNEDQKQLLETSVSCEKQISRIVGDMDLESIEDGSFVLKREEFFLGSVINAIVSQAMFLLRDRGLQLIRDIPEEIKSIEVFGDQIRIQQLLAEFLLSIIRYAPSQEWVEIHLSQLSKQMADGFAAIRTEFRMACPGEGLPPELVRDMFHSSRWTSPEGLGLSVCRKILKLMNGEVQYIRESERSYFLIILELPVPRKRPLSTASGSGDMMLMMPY

What was measured:
[1] = target: T1, PIF3:MYC (in vitro synthesized) (Arabidopsis) (UniProt O80536); assay: co-IP; in vitro co-IP with phyB, PIF3 and PPK1 together (Supplementary Fig. 3d); bait not given
T1 sequence: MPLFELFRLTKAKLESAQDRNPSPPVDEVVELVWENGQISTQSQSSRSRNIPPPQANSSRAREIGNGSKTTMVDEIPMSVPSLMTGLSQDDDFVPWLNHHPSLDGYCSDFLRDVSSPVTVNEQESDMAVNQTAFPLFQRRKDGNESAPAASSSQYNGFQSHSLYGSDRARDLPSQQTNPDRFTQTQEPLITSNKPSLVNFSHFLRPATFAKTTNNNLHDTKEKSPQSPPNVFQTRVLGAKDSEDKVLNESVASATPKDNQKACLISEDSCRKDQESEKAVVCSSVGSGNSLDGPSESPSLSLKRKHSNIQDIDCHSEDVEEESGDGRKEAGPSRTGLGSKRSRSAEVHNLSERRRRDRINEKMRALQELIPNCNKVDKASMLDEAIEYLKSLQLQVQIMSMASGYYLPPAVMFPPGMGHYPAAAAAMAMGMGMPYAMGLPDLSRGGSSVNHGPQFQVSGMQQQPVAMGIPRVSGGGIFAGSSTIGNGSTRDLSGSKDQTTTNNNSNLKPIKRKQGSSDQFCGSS

[2] = target: T2, GST:PIF3-WT:MYC (Arabidopsis) (UniProt O80536); assay: pull-down; in vitro pull-down with the PIF3 of the kinase assay as bait and phyB:FLAG (Pfr) as prey; blot with MYC and FLAG antibodies; both purified
T2 sequence: T1 sequence

[3] = target: T1, PIF3:MYC (in vitro synthesized) (Arabidopsis); assay: co-IP; proteins synthesized in HeLa cell lysate; MYC-tagged bait captured with anti-MYC; phyB:FLAG prey irradiated with R light only (Pfr) before immunoprecipitation

Measured: binding

phyB:FLAG (from UniProt P14713 1-1172) (receptor)
binds: all assays above
